Laboratory results: article doi:10.1101/2020.11.09.375865
These are yes or no findings as the source states them, for the method shown. Binding can be weak; no strength is given.

Target: PCMD-1 (C. elegans) (UniProt O62071)
Assay: two-hybrid

Binder | binding
SAS-4 (protein, UniProt P34402 1-808) MASDENIGADGEQKPSRPFLRKGQGTARFRMPRNNKTSAGAPPTSELSSASSPSINVPRFSLSNALPNSARTVDSGISNEDETRPPTTASLPMDQPSLSSSPENRLNPAPSVAEEHGHSGQHAEEEEDNDTDEVSAMPSFVPDEPSTLVNSDHELSDDALKYKNAAAEFKAFERRMDSMRSASTITTSLATPSSCAPSNSSEPPTRSTPIMNDLGVGPNNHNWPSSMQELSGISLETPQARPLGSNRINQLVRSEAQTGISLLQHHERPTVTAPLRRNDMMNSSRQNPQNGNVQDENRPEHVYDQPIHVPGSSLDRQKLEIEIRRHRNLNIQLRDTIAHLDYAEESVHTTKRQLEEKISEVNNFKKELIEEFKKCKKGVEEEFEKKFEKIKEDYDELYEKLKRDQRDLERDQKILKKGTGERNKEFTETIATLRDKLRASETKNAQYRQDIRVRDEKLKKKDEEIEKLQKDGNRLKSTLQTLEKRVKQLRTEKERDDKEKEMFAKVAMNRKTSNPVPPVLNQSVPISITSNGPSRHPSSSSLTTFRKPSTSNRERGVSWADEPNEQSLEAVPQEFLMMPVKEMPGKFGKCTIYRDSLGETSKVTDTIANGLLFEYSNGDLRWVNRQNAVNIYISAVDKTVRIDLPTYNISIIHTFQRQVEVLRPGNNITLISIKRREVRTDLIYQNGMYKTEIFNRDGRYVTKDFSNQEVSRKYNPGTHTYRDNQCRYVLVTDYNDFELVEPEFRLRWYQGDPTGLNNQYILKIIGRPECSEKTLRLEVNLSTCEGTLETAEMIGDKRRKTTLFQWKK | binds
SPD-2 (protein, UniProt P91870 1-824) MEDDAPMNLCNEQFEEIEDSPIDDNDNESFYNADGDVELEEEEVHETPKNFKNGGRFKTNMTNPKVNDLTTIEEKNEDLRSAASSRSASRPASVMSDKSFSSQFEFQSGGENAIEEYTNQVFADENKADLLFPETSKFMNGASPPKDKHHSWEPSIHHYDKQPPPDIQTNSPVFGNLNHRKNKLIPQARAKPGANDNEIVERDNDENVPTTSDKSAFITSPMNSTNHDEKTSTPKRPTNRKIGQYQGPNFDLSSIYVGSPQHQNTSISTGQQMPTSSYSHAHSETMMTNQTINESMVRRVLNGNNKNQDLFAALEEARKRRAAQPSKPDFRINTTRTRVPIKPTSARHSGNVVSSTSNDNTTAASSKDLTTSRKAMETFRQNASMADATNSNTASMTSILSTISTARTDISRSSRNHGGGFSNTSVSTVIPANNGNVSLSHGRDGRDSVSSVRTMSRASSTSTVYAGSTFSGVSKPLRIHAKRVAFGCVAVGETLRVEVEVENISDRQCLVRASTDSTTPVYQILDNKLTMVDPKKSIKFQVSFSPSSVGRYQVIMSIEVPAQNFIHKIPMWGNGGIAKFVPTSPDLQQTINQSEYAMCTSCAKRISFKISNSAGTRDGFAMIKVFDSAMRQLPDGCVAFFPAPGFIVKKKSDKRVDIRIDSSYIDLHDENNFRTSSSLSTASTTSSFQRRILPGAKFFVHVVWGEETMRTRLRLLEVRTGQHQLIDGHDFTSFQFSDEEVLRAVPVGFPAIKPEDRDLFAASYRSFFINFFTSTTEFRAATSRKKKEICSNDDSTLLETTAFRNQTFVNDVTIVPNTRFSNRK | no binding
